Library screening results

Each number is a percent effect as filed. The controls that fix the scale are not given in the record; negative values are as filed. This is an unselected part of the compounds tested. Two or more numbers in one place are separate tests of the same structure; such repeats can differ widely.

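Viability assay of Plasmodium falciparum sporozoites; the read-out is not stated. The concentration is filed as 10 mM, unlikely as a test dose, so the dose is not known. Higher reads as lower viability (inferred: compounds with an IC50 in retests scored well above the rest). Strong results were mostly tested again. Size under these conditions: about 34,000 compounds, about 280 of them at 50% or above in at least one test.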

{"compound": "CCOc1cc(C)nc(N2CCN(C(=O)c3csnn3)CC2)n1", "Percent Effect": 5.922}
{"compound": "Cl.Cl.Cn1cc(C(=O)NCc2cncc3c2CCN(c2ccccn2)C3)cn1", "Percent Effect": -12.15}
{"compound": "CC(C)c1nccn1C1CCCN(C(=O)c2ccsc2)C1", "stereo": "centres undefined", "Percent Effect": 9.81}
{"compound": "[H][C@@]12CCN(Cc3cccnc3)C[C@@]1([H])[C@H](C(=O)N1CCCCO1)CCO2", "Percent Effect": -3.07}
{"compound": "CCN(CC)CCNC(=O)c1cnc(C(C)(C)C)s1", "Percent Effect": -10.19}
{"compound": "Cn1ccc(CN2CCC(NC(=O)NC3CCCCC3)CC2)cc1=O", "Percent Effect": 7.568}
{"compound": "Cc1occc1CN(C)Cc1nc2c(cnn2C)c(=O)[nH]1", "Percent Effect": -0.7455}
{"compound": "COc1cc2nc3n(c(=O)c2cc1OC)CCN(C(=O)C(C)(C)C)CC3", "Percent Effect": 9.707}
{"compound": "Cc1nc(C)n(CC2CCCCN2Cc2cnc(C)s2)n1", "stereo": "centres undefined", "Percent Effect": 2.472}
{"compound": "Cc1nn(C)c(N(C)C)c1CNCCS(C)(=O)=O", "Percent Effect": 14.95}
{"compound": "Cc1ccc(C(=O)N2CCC3(CCCN(c4ccc(C)nn4)C3)C2)cn1", "stereo": "centres undefined", "Percent Effect": -6.388}
{"compound": "CCC(=O)N1CCCC(C(=O)c2cnn(-c3ccc(F)cc3)c2N)C1", "stereo": "centres undefined", "Percent Effect": "46.01 & 80.8 & 57.02"}
{"compound": "COCCn1ccc(NC(=O)Nc2ccc(C(N)=O)c(F)c2)n1", "Percent Effect": -5.975}
{"compound": "Cc1nnc2n1CCN(C(=O)c1cn(-c3ccccc3Cl)nn1)C2", "Percent Effect": 17.87}
{"compound": "COCC(=O)N1CCN(C)C(=O)C(Cc2ccc(-c3cccs3)cc2)C1", "stereo": "centres undefined", "Percent Effect": 3.497}
{"compound": "O=C(O)C(F)(F)F.O=C(O)C(F)(F)F.O=C(O)c1c(-c2cncnc2)ncc2c1CCN(Cc1ccco1)C2", "Percent Effect": 10.23}
{"compound": "Cc1ccccc1CC(=O)N1CCOCC1c1c(C)n[nH]c1C", "stereo": "centres undefined", "Percent Effect": 7.522}
{"compound": "Cc1ccc(CN(CCCn2ccnc2)Cc2[nH]cnc2C)s1.O=C(O)CC(O)(CC(=O)O)C(=O)O", "Percent Effect": 4.775}
{"compound": "COCCN1CCCC1Cn1nc(C)cc1C", "stereo": "centres undefined", "Percent Effect": 0.9141}
{"compound": "CN(C)c1cc(C(=O)N2CCN(S(C)(=O)=O)CC2)ccn1", "Percent Effect": 5.797}
{"compound": "COCCn1ccc(NC(=O)Nc2ccccn2)n1", "Percent Effect": -14.16}
{"compound": "CN(Cc1cnn(C)c1)C(=O)NCc1ccc2c(c1)OCCO2", "Percent Effect": 4.379}
{"compound": "Cc1nc(C2CCN(C(=O)c3ccn(C)n3)CC2)c2sccn12", "Percent Effect": 14.52}
{"compound": "O=C(O)C(F)(F)F.[H][C@@]12CC(=O)N(CC(=O)N(C)C)[C@@]1([H])CCN2Cc1cccc(C#N)c1", "Percent Effect": 2.835}
{"compound": "Cn1cc(C2CC(=O)NC23CCN(Cc2cccc(F)c2)CC3)cn1.O=C(O)C(F)(F)F", "stereo": "centres undefined", "Percent Effect": 14.17}
{"compound": "COc1ccccc1CN1CC[C@]2(C[C@H](OC)CO2)C1.O=C(O)C(F)(F)F", "Percent Effect": "-23.08 & -9.649 & -23.91"}
{"compound": "Cn1ccc2ccc(C(=O)N3CCC[C@H]3C(=O)N3CCOCC3)cc21", "Percent Effect": -3.197}
{"compound": "c1cnn(CC2CN(c3ncnc4ccsc34)CCO2)c1", "stereo": "centres undefined", "Percent Effect": -8.568}
{"compound": "O=C(c1cnccn1)N1CCN(Cc2ccncc2)c2ncccc2C1", "Percent Effect": -4.221}
{"compound": "COc1c(CNC(c2cccc(F)c2)c2nccn2C)c(C)nn1C", "stereo": "centres undefined", "Percent Effect": 14.93}
{"compound": "COc1ccc(NC(=O)NC(C)c2nc[nH]n2)cc1Cl", "stereo": "centres undefined", "Percent Effect": "-7.075 & -10.84"}

Some entries from above, unchanged:

compound	Percent Effect
[H][C@@]12CCN(Cc3cccnc3)C[C@@]1([H])[C@H](C(=O)N1CCCCO1)CCO2	-3.07%
O=C(O)C(F)(F)F.O=C(O)C(F)(F)F.O=C(O)c1c(-c2cncnc2)ncc2c1CCN(Cc1ccco1)C2	10.23%
COc1ccc(NC(=O)NC(C)c2nc[nH]n2)cc1Cl (centres undefined)	-7.075% & -10.84%
O=C(O)C(F)(F)F.[H][C@@]12CC(=O)N(CC(=O)N(C)C)[C@@]1([H])CCN2Cc1cccc(C#N)c1	2.835%

Source: ChEMBL document CHEMBL3988442, “University of Dundee, Small-Polar-MMV Screening Library” (2021).